Laboratory results: the supplement of paper PMC3334620
Whole data set: some 33,000 sequences, median “E-score (-0.5 to 0.5)” near -0.0014, cut for the highest 2% near 0.25. The list shows a part of the results.

Biological target: T1, Cad1 (UniProt P24813)
T1 sequence: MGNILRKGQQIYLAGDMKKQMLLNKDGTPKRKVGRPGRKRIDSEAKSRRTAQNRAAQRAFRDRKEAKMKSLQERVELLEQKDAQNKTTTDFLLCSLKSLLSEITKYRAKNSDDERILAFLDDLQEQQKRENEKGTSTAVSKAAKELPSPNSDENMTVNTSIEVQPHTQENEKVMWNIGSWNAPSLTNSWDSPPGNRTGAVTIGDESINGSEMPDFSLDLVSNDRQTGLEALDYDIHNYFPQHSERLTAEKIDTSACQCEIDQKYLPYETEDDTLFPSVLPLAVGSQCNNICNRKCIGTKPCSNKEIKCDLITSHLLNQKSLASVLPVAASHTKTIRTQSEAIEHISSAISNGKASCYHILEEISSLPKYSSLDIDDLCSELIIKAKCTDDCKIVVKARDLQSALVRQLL
Assay: PBM E-score (8-mer binding enrichment) (E-score (-0.5 to 0.5)); higher = stronger / more preferred TF binding
Details: protein concentration: 100 nM; construct: GST-full length
Method in brief: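 Each ungapped eight-base word and its reverse complement, pooled, received an E-score from the Universal PBM Analysis Suite. Underlying scans, normalised with masliner, recorded fluorescent anti-GST bound to GST-tagged yeast transcription factors. These were applied at about 100-200 nM to universal all-10-mer Agilent arrays double-stranded by primer extension.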

Sequence	PBM E-score
CGAATATC	0.188
CACCTGAG	-0.0553
AGGATAAG	0.059
ACAGGAAT	-0.0277
GCGGCTAA	0.04
TGGGTGAA	0.171
GACCAGGA	-0.0841
AACCAATG	0.109
GCGTATGA	-0.0342
AATTATAG	0.0146
AAGCCAAC	-0.0179
CCAGTCCC	-0.0713
CAGCGTGC	-0.0014
TGCCTCCA	-0.253
ATTTTCAC	0.125
AGGTAAGA	0.0122
CTAGCGAG	-0.0728
ATCAACAT	0.24
AAGAACGT	0.106
CCCCATGC	-0.218
TTCGTCAA	-0.103
CAATTCAG	-0.0912
GTCTAAAC	0.143
ATCAGTAC	0.0502
CAGACCCG	-0.182

Sequence	PBM E-score
ACGGGCAA	-0.05
CTACTATC	0.229
ACACATGC	-0.0854
GTCTCGTA	-0.141
GAGGATCC	0.00114
CATTCTGC	0.00645
TAAACAGA	0.0907
ATCACCTA	-0.125
CTCAAGCA	-0.169
AATCATGC	-0.0973
AAGTGGAG	0.0645
CAAAACGA	0.0549
ATGAGATC	0.0315
CAAATTAA	0.207
CACGACGA	-0.197
ATCCGTTC	0.229
AACGGTGA	-0.167
AATACAAT	0.124
AGCACTTC	0.0469
GAGCAATA	-0.0516
AAGTGGGG	-0.28
CATTAGTA	0.304
ACCCATCC	-0.166
CACATCTC	0.059
TCGTTAAA	0.0362

Sequence	PBM E-score
TCATCAAA	-0.0451
TCGATAGA	0.022
AGAGCCCG	-0.192
GAACACCA	0.113
ATTAACAA	0.201
CCTCCAAG	-0.0791
ACTCATCA	-0.0343
ACCGTTAT	0.0686
AATCGATA	0.288
AGGCACCA	0.0182
CCTTCCGC	-0.212
GAATGACC	-0.161
ACGCCTAC	-0.225
AATAGTTA	0.0477
GCGTTGTA	0.0976
CTAGCCAC	-0.198
CCATGAAA	0.0805
ACGGATCT	0.0244
GTATTCGA	-0.167
GTGGGCGA	0.0578
ACTAGTAT	0.148
CAGAGGAC	-0.119
ATAGAACC	-0.124
ACAGACCA	0.166
CCGGAGAC	0.036

Sequence	PBM E-score
ACAAGGGT	-0.0344
CTGACCGC	0.0147
AAGGATAG	-0.0192
TCATAGGA	0.046
ACATGGGT	0.0464
GGAACTCA	-0.0964
TCATGGAA	0.029
AGTAGCAC	-0.0426
ACGTTAGG	-0.0545
ACGAACGC	0.176
AGCTACGC	-0.0406
TAAAGAAA	0.132
CTTCTCTC	-0.0707
ACGCCTCG	-0.0665
CTTAGCTA	0.092
CGCGGATA	0.258
GGTAGTCA	-0.206
ATCACCAG	0.0749
ACTGAAAA	0.151
GTATCCAA	0.00237
GAATTCAC	0.146
ATTGACAG	0.00745
GAAAGTCC	-0.00621
CACCGGAA	0.145
CCATGTGA	-0.11

Shown as a markdown table: part of the list above.

| Sequence | PBM E-score |
| --- | --- |
| CAGCGTGC | -0.0014 |
| TGCCTCCA | -0.253 |

Carrying on.

Sequence	PBM E-score
AAATTAGA	0.191
CTCGTTGA	-0.0911
TCCAATCA	-0.0209
ACCTTTGA	-0.159
CAGCCGCA	-0.142
ATCCTCAA	-0.148
GCAATCGA	0.0723
CGGGTAAC	-0.115
ACCAGCGA	-0.0754
ATTACGCG	0.144
ACGTCATG	0.0602
CTGCACAG	0.118
CACACCAG	-0.0379
AATCCCCA	-0.0265
ACGACGCA	0.0359
GGGAAGAC	-0.154
TAGCTAAA	0.0384
AGGGATGG	0.0662
AGTTTTGC	0.141
CGGACTAA	0.0202
AGTAGCCC	-0.107
CGCAGTTC	0.0797
CCACTAAG	0.0649
AGTGGCAT	-0.0791
GCGAAGCA	0.0455

Sequence	PBM E-score
GGTACTAC	-0.0922
CTTCGGGC	-0.127
CACCGATG	-0.179
CCCGATTA	0.155
AGGACTGC	-0.136
AGACTCAG	0.0244
AGATTTTA	-0.0429
TATTGGGA	-0.0435
GGAGGACC	-0.28
TCGCTAAA	0.0566
CACTCACA	0.0496
AGGTCCAT	-0.0267
ACTGTTCA	-0.0756
CACCGTCC	0.0473
AATCGCCG	0.0454
GCCGGTGA	0.058
CGATATCA	0.184
AGGCCGCA	-0.00988
ATTATATA	0.306
CCGACACA	0.0345
AGATAAAA	0.161
AATTTCGT	0.131
AGTAACGA	0.0284
GACACATA	0.127
AGGAACTC	0.111

Sequence	PBM E-score
CGCTTGAG	-0.0753
AAGCGACA	0.0768
AAGGTAGT	0.0321
AACGCAGC	0.167
ACTCATCC	0.119
GCTACGAA	0.00936
ATGATTGG	-0.0266
AAACAGCC	-0.233
AGCCTGAC	-0.198
GCATGTAA	-0.0688
ATCAGGCA	-0.00079
ACCTCTCT	-0.179
AAAGCGTA	-0.0921
GCACGATA	0.0573
ACTAAAGC	0.175
GACCCACC	-0.178
AACGCTCC	-0.0134
GATACCCA	0.122
CAATCTGG	-0.00447
CACATTAA	0.0879
TAGATCAA	0.0586
AAAGTGAT	-0.0108
CCCCATGA	-0.121
GGACTCCA	-0.137
AGAAAACG	0.0068

Look-ups from the list.
Value for TAGATCAA under PBM E-score: 0.0586
Value for AACGCTCC under PBM E-score: -0.0134
Value for ATGATTGG under PBM E-score: -0.0266

More records

Sequence	PBM E-score
ACCATCCA	-0.0249
CCATCAAG	-0.109
GGCAAACC	-0.125
AGCGTTCA	-0.209
TAACCTCA	-0.0309
GCGGTGAA	0.0529
AAATCTGA	0.116
AGCTATGA	-0.043
CATCGGAC	-0.0526
ATTAAGCG	0.152
CCTGGGCA	-0.275
ACGTCTAT	-0.155
CGTCCGGA	0.099
CACGTATA	-0.00072
CATACCTC	-0.0139
CGAGTGAG	0.135
GTCTTCGA	-0.0588
ACCTGTGC	-0.0872
GGTTGCTA	-0.176
GCGTCATA	0.0658
AGAACACT	0.126
CTACCAAA	0.0183
TCTCCAGA	-0.204
AAGAGTGA	0.0401
CTCCCAAC	-0.196

Sequence	PBM E-score
ACTCAGCA	0.185
CTCGTCGC	-0.0392
AGGTCAAA	-0.195
GACTGGGA	-0.113
ATAGCGAG	0.0707
GACAGGGC	-0.117
ACCCTGCT	-0.279
CGTCGACA	0.0742
GACAAGCC	-0.0138
ACTCTCAG	-0.0475
CCATGAGC	0.00289
CTCCGAAC	0.0184
ATGTGTTG	0.17
GGAATTAA	0.208
GGTCAGAA	-0.102
CCGGAAAC	0.125
CATACAAG	-0.25
AGGCTTGG	-0.0528
AACCCGCA	-0.14
ACATAGTC	-0.0356
GAGTCGAC	0.235
ATAAATCG	0.181
AGAAAGTC	-0.0353
CAAACCGA	0.0658
GTGAAGGA	-0.0964

Sequence	PBM E-score
CACAGCCC	-0.129
AAAAATTT	0.269
GCAAAGAA	0.0155
ACGAAAAT	0.189
ATGAACAC	0.0691
GAGCGAGC	0.0994
GCTTCGCA	-0.109
AACAGGGG	-0.0212
ATACGATG	0.0803
AGGGCAAG	-0.0578
ACTTCAAG	-0.086
ACTGTCTA	0.00817
ACGTATGG	-0.133
TCGTCTAA	-0.0389
CCGGGATC	0.0959
GACTCCTC	-0.0684
AGAGGCCA	-0.285
AGTGCGAG	-0.0178
ATAGTCTG	0.0633
CGTATCTC	-0.00599
TGTCCCAA	-0.0531
AGCCCGAT	0.129
ATCGTGGG	0.0806
ATAGGCAC	-0.112
AGTTAGCA	0.084

Sequence	PBM E-score
ACTATACG	-0.0161
AGCGGTAA	0.00823
AATAAAGA	0.195
AATGCATA	0.0741
ACCAGAGG	-0.164
ACAATAGG	-0.0595
CAAGGTAA	0.0428
ATGGATTG	0.0032
CTTATCAA	0.256
CTCTTATC	0.16
AAAATCAG	0.0235
AGAGAAGC	-0.0596
GGCTGGCA	-0.291
GCTCTACA	-0.0616
AGTACTAC	0.145
ATTCATAC	0.125
AACCATCA	0.0353
GATTTTAA	0.209
ACAACAGG	-0.118
CTAAAAAA	0.11
ATGAGTGC	0.0261
ATGCAAAT	0.0985
ACCGTCTC	0.138
CCGTTGAC	-0.164
ATGTAAAA	0.0559

Sequence	PBM E-score
CCTTTCCC	-0.271
AAAGATCA	0.0543
ATCAAGGA	0.0737
ACCGACCA	0.0873
ACACCTAC	0.131
AGCGGTTA	-0.157
AGGGAGCG	-0.18
ATGCCTTC	-0.162
CTGGTGTA	-0.184
CCATCTCG	-0.0839
ACGATTGG	0.0382
ATATTCAT	0.114
CATACCGG	0.0862
ACTGGTTA	-0.0961
ACTTTAAC	-0.0413
ACAGGCCA	0.0569
ATTTTGGC	0.193
AGAAGTAG	-0.113
ATATCCCA	0.0408
CAGTTGTA	0.0349
CGTCAATC	0.0566
ATTTCACC	0.118
CAACGTTC	-0.009
TACCCCGA	0.00562
GTACAAAA	0.0779

Sequence	PBM E-score
ACTCAAGG	-0.165
ATCGTGTG	0.0714
CTGTTGAA	0.184
AGGTTGGA	0.0012
CTTTCCTA	-0.0978
CATAGCTA	-0.103
ATGGAGAG	-0.231
CGAGGCCA	0.0424
GTCGGATA	0.0779
ACTATATC	0.109
CCCGTGAC	-0.165
GGGGACCC	-0.309
AGGCGACG	-0.0289
AATCTCCT	-0.109
CAGGGCGC	0.0228
CGCGGAAC	0.135
GGCGACAA	-0.0864
ACAGCCAA	0.0312
TCAGTCAA	-0.153
GATTGCGC	0.0674
AGCGGAGA	0.104
ACAAGGGC	-0.275
CCCTAAGG	-0.174
AGTGTAAG	0.0343
GCTAACCA	0.0219

Two entries drawn at random from the list so far, as already listed:
Sequence	PBM E-score
ATGGAGAG	-0.231
GTCGGATA	0.0779

(cont.)

Sequence	PBM E-score
AGCCCTAG	-0.0198
CGGCTCAA	0.0538
TCACCTCA	-0.13
TATTGTAA	-0.0662
ATTGGCTG	-0.131
GGATTCAC	0.0135
AGGCCTCC	0.0546
GAGCTTAC	0.151
CGCCGGGC	-0.0376
GGAGGCCC	-0.351
AAGTCGCT	-0.0909
ATGCTAAT	0.19
CATTAAAA	0.165
CGTGATGA	0.0624
CTTCGAGC	0.0427
AAAATCTC	0.061
ATTCGCCA	0.0814
CTGACCAC	-0.128
GCCAAGAC	-0.0614
